From PubChem BioAssay AID624297 (National Center for Advancing Translational Sciences (NCATS), 2012)
Among all 340,000 compounds or so, about 6,200 (1.8%) were called active. The inconclusive results got no clear call from the source; some entries with a clear call stand among them for comparison. Calls come from the whole dose curve; as a rule, active = well fitted activation curve with a large enough effect; inconclusive = small, poorly fitted or top-dose-only effect; inactive = no such curve, though single readings can be large or run the other way. Potencies beside an inconclusive call are fits to weak or partial responses and may not hold up.

Experiment: A quantitative high throughput screen for small molecules that induce DNA re-replication in SW480 colon adenocarcinoma cells. For re-replication activation: % of control where 0% means no effect. Note: nearly all actives have a fitted effect of over 55% in size.
Conditions: Hoechst DNA content imaging, 48 h; re-replication activation: at 46.1 µM (top of the series) unless noted
Summary of the method: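 Image-based read-out: total Hoechst fluorescence of nuclei (405 nm excitation, 500-530 nm emission), with hits raising the fraction of high-intensity nuclei. SW480 colon cells incubated 48 hr with compounds at 37 C.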
Potency is the fitted concentration of half-maximal effect.

Row | Structure (SMILES) | Potency | re-replication activation
1 | COc1ccc(-c2cc(C(=O)N/N=C/c3cccnc3)c3ccccc3n2)cc1 | inconclusive: 29.1 µM [activator, single point] | –
2 | CCSc1nccc(-c2nn(-c3ccc(C)cc3)ccc2=O)n1 | active: 7.31 µM | –
3 | CC(/C=N/Nc1nc(C)cc(C)n1)=C\c1ccc(C(C)C)cc1 | inconclusive: 0.411 µM [activator, full curve, poor fit] | –
4 | CCCn1c(SCC(=O)c2ccc3c(c2)NC(=O)CO3)nc2ccccc21 | inactive | –
5 | CCCCCC(=O)Nc1nc(C)c(-c2csc(Nc3ccccc3OC)n2)s1 | inactive | –
6 | COc1cc(/C=N\NC(=O)c2ccc(-c3ccccc3)cc2)cc(OC)c1OC(C)=O | inconclusive: 32.6 µM [activator, partial curve, poor fit] | –
7 | COc1cccc(NC(=O)CSc2nc3c(sc4ccccc43)c(=O)n2CCCN2CCCC2)c1 | inconclusive: 1.16 µM [activator, full curve, poor fit] | –
8 | CCOC(=O)N1CCC(N2C(=O)c3ccc(C(=O)O)cc3C2=O)CC1 | inconclusive: 29.1 µM [activator, partial curve, poor fit] | –
9 | Cc1ccc(S(=O)(=O)NCc2ccccc2)cc1C(=O)NC(C)c1ccc(S(N)(=O)=O)cc1 (centres undefined) | inconclusive: 6.51 µM [activator, single point] | –
10 | COc1ccc(NC(=O)N2c3ccc(OC)cc3C(C)=CC2(C)C)cc1 | inactive | –
11 | COc1cccc(C(=O)NCC(=O)NNc2ncnc(N)c2[N+](=O)[O-])c1 | – | inconclusive: -28% [activator]
12 | O=C(CCC(=O)c1cccs1)NCc1ccccc1Cl | inactive | –
13 | Cc1cc(=O)oc2c(C)c(OCC(=O)NCC3CCC(C(=O)O)CC3)ccc12 (centres undefined) | inconclusive: 3.66 µM [activator, single point] | –
14 | Cc1ccc(NC(=O)CSc2n[nH]c(-c3ccccn3)n2)cc1 | active: 5.17 µM | –
15 | COc1cc(/C=C2/SC(=S)N(Cc3ccccc3)C2=O)ccc1OS(C)(=O)=O | inconclusive: 16.4 µM [activator, single point] | –
16 | O=C(CCN1CCN(c2ccccc2F)CC1)c1ccc(Br)cc1 | inconclusive: 29.1 µM [activator, single point] | –
17 | CCOC(=O)c1c(NC(C)=O)sc2c1CCC(C=NCCCN(CC)CC)=C2Sc1ccccc1 | inconclusive: 28.2 µM [activator, single point] | –
18 | Cc1nc2c(ccc3nc(NC(=O)C4CC4)sc32)s1 | inconclusive: 29.1 µM [activator, single point] | –
19 | Cc1ccc(S(=O)(=O)NC(Cc2ccccc2)C(=O)NN)cc1 (centres undefined) | inconclusive: 14.6 µM [activator, partial curve, poor fit] | –
20 | CN(C(=O)CSc1nc(-c2cccs2)nc2ccccc12)C1CCS(=O)(=O)C1 (centres undefined) | inactive | –
21 | N#C/C(=C\c1ccc(OC(=O)c2ccc(Cl)s2)cc1)c1nc2ccccc2[nH]1 | inactive | –
22 | COCc1cc(C)nc(Sc2nc3c(c(=O)n(C)c(=O)n3C)n2C)c1C#N | inactive | –
23 | CN(C)C(CNC(=O)CNC(=O)Cc1cccc2ccccc12)c1ccccc1 (centres undefined) | inconclusive: 10 µM [activator, partial curve, poor fit] | –

Row | Structure (SMILES) | Potency | re-replication activation
24 | O=[N+]([O-])c1cc(-c2ncccn2)c([N+](=O)[O-])s1 | active: 20.6 µM | –
25 | CCOc1ccc(NC(=O)C(C)C(Cc2ccc(C)cc2)C(=O)O)cc1 (centres undefined) | inactive | –
26 | COc1ccccc1NC(=O)CN(Cc1ccco1)C(=O)c1ccc(Cl)nc1 | inconclusive: 2.59 µM [activator, partial curve, poor fit] | –
27 | CCN(CC)C(=O)c1ccc(-c2nnc(OC)c3ccccc23)cc1 | inconclusive: 23.1 µM [activator, partial curve, poor fit] | –
28 | COc1ccc(Cl)cc1NC(=O)CNc1ccccc1F | inconclusive: 18.4 µM [activator, single point] | –
29 | CCC(C)(C)NC(=O)C(c1cccn1C)N(Cc1ccc(OC)cc1)C(=O)Cn1nnc2ccccc21 (centres undefined) | inconclusive: 16.4 µM [activator, single point] | –
30 | O=C/C(=C\Nc1ccc(S(=O)(=O)CCO)cc1)c1nc2cc(Cl)ccc2o1 | inconclusive: 18.4 µM [activator, single point] | –
31 | COc1ccc(NC(=O)N2CCCC2C(=O)NCCc2ccccc2)cc1 (centres undefined) | – | inconclusive: 21.4% [activator]
32 | Cc1cc(C)cc(-n2ccnc2SCC(=O)O)c1 | inactive | –
33 | COc1ccccc1OCCNC(=O)c1c(-c2ccccc2Cl)noc1C | inactive | –
34 | O=C(COC(=O)/C=C/c1ccccc1)NC(=O)NCc1ccccc1 | inactive | –
35 | Oc1ccc(Cl)cc1-c1cc(-c2ccco2)[nH]n1 | inconclusive: 29.1 µM [activator, single point] | –
36 | O=C(O)CC1(c2ccc(F)cc2)C2CC3CC(C2)CC1C3 (centres undefined) | inactive | –
37 | Oc1ccc(/C=N/Nc2ccnc3cc(Cl)ccc23)c(O)c1O | inconclusive: 29.1 µM [activator, single point] | –
38 | COc1ccc(NC(=O)C23CCC(C)(C(=O)O2)C3(C)C)cc1 (centres undefined) | active: 5.17 µM | –
39 | CCOc1ccc(C(=O)NCC(=O)NCC(c2cccs2)N2CCOCC2)cc1 (centres undefined) | inconclusive: 1.46 µM [activator, partial curve, poor fit] | –
40 | O=C(NC1CC1)C1CCN(c2ccc(S(=O)(=O)N3CCOCC3)cc2)CC1 | inconclusive: 4.11 µM [activator, single point] | –
41 | Cc1cc(C)c2ccc(NN)nc2c1O | inconclusive: 20.6 µM [activator, single point] | –
42 | Cc1ccc(CN2C(=O)c3ccccc3Sc3ccc(C(=O)NCCN4CCOCC4)cc32)cc1 | inconclusive: 29.1 µM [activator, single point] | –
43 | CCC1=[N+](CC(=O)c2ccc(C)cc2)CCn2cccc21 | inactive | –
44 | O=C(CN1CCSC1=NCc1ccccc1)c1ccc(Cl)cc1 | inactive | –
45 | CCn1c2ccccc2c2cc(NC(=O)CSc3nnc(-c4cccc(Cl)c4)o3)ccc21 | inconclusive: 18.4 µM [activator, single point] | –
46 | O=C(CSc1ncc(-c2ccccc2)n1C1CCCC1)N1CCc2ccccc21 | inactive | –

Row | Structure (SMILES) | Potency | re-replication activation
47 | COc1ccc2oc(C(=O)N3CCN(C(c4ccccc4)c4ccccc4)CC3)c(C)c2c1 | inactive | –
48 | O=C(COC(=O)c1cc(=O)[nH]c2ccccc12)Nc1ccccc1F | inactive | –
49 | C=CCn1c2ccccc2c(=O)c2cc(C#CC[C@@H](C)O)ccc21 | – | inactive: 0.306% [at 9.22 µM]
50 | COCCCNC(=O)CC1C[C@H](C(=O)N2CCOCC2)[C@@]2(C)c3[nH]c4ccc(OC)cc4c3CCN2C1=O (some centres undefined) | inconclusive: 0.0052 µM [activator, full curve, poor fit] | –
51 | Nc1ccc2nc(-c3ccccc3)sc2c1 | inconclusive: 20.6 µM [activator, single point] | –
52 | COC(=O)c1cc2c(n1S(=O)(=O)c1ccc(C)cc1)C(=O)C(=O)c1[nH]cc(C(=O)OCc3ccccc3)c1-2 | inconclusive: 0.82 µM [activator, full curve] | –
53 | CN1CC[C@@]2([C@@]34CCN(C)C3Nc3ccccc34)c3ccccc3NC12 (some centres undefined) | inconclusive: 29.1 µM [activator, single point] | –
54 | O=[N+]([O-])c1ccc(S(=O)(=O)Nc2nnc(C(F)(F)F)s2)cc1 | inconclusive: 29.1 µM [activator, single point] | –
55 | COc1ccc([N+](=O)[O-])cc1NC(=O)CSCc1cc(C)cc(C)c1 | inconclusive: 18.4 µM [activator, single point] | –
56 | Cc1ccc(N2C(=O)c3ccc(C(=O)N4CCN(c5ccc(C)c(C)c5)CC4)cc3C2=O)cc1 | inactive | –
57 | O=[N+]([O-])c1ccc2c(c1)N([O-])C1(CCCCC1)[N+]2=O | inconclusive: 16.4 µM [activator, partial curve, poor fit] | –
58 | Cc1cccc(N2CCN(CCCNC(=O)c3ccc(NC(=O)C4=CSCCO4)cc3)CC2C)c1 (centres undefined) | inconclusive: 16.4 µM [activator, single point] | –
59 | COc1ccc(-c2nnc(SC)n2C)cc1 | inactive | –
60 | Cc1ccccc1OCCc1c(C)[nH]c(=S)[nH]c1=O | active: 3.66 µM | –
61 | c1ccc2[nH]c(SCC3CCCCO3)nc2c1 (centres undefined) | inconclusive: 23.1 µM [activator, partial curve, poor fit] | –
62 | COc1ccc(C2N(c3ccc4c(c3)OCCO4)C(=O)C2(F)F)cc1OC (centres undefined) | inconclusive: 5.17 µM [activator, single point] | –
63 | O=C(c1ccc2c3c(cccc13)CC2)C1CCCN(Cc2ccncc2)C1 (centres undefined) | inconclusive: 23.1 µM [activator, partial curve, poor fit] | –
64 | CCOc1ccc2c(c1)C(c1ccc(C)cc1)=NNC(c1ccc(OC)cc1)=N2 | inconclusive: 23.1 µM [activator, single point] | –
65 | O=c1c2cc(Br)ccc2nc(-c2ccc(Cl)cc2)n1O | inconclusive: 25.9 µM [activator, single point] | –
66 | CC(C)Oc1cccc(C(=O)Nc2ccc(Br)cc2F)c1 | inconclusive: 29.1 µM [activator, single point] | –
67 | CCN1CCN(c2ccc([N+](=O)[O-])c(Sc3nc4ccccc4[nH]3)c2)CC1 | inconclusive: 20.6 µM [activator, single point] | –
68 | CCc1nc(SCC(=O)Nc2ccccc2C)n[nH]1 | inconclusive: 6.51 µM [activator, single point] | –
69 | COc1ccccc1NC(=O)NCCCCc1ccccc1 | inconclusive: 29.1 µM [activator, single point] | –

2 compounds drawn at random from those above, as already listed:
Row | Structure (SMILES) | Potency | re-replication activation
31 | COc1ccc(NC(=O)N2CCCC2C(=O)NCCc2ccccc2)cc1 (centres undefined) | – | inconclusive: 21.4% [activator]
60 | Cc1ccccc1OCCc1c(C)[nH]c(=S)[nH]c1=O | active: 3.66 µM | –

Arranged by molecular weight (descending): 3 of the compounds above.
Row | Structure (SMILES) | Potency | re-replication activation
58 | Cc1cccc(N2CCN(CCCNC(=O)c3ccc(NC(=O)C4=CSCCO4)cc3)CC2C)c1 (centres undefined) | inconclusive: 16.4 µM [activator, single point] | –
62 | COc1ccc(C2N(c3ccc4c(c3)OCCO4)C(=O)C2(F)F)cc1OC (centres undefined) | inconclusive: 5.17 µM [activator, single point] | –
59 | COc1ccc(-c2nnc(SC)n2C)cc1 | inactive | –
